Experimental data from patent US20230302160A1, “TUMOR CONTRAST COMPOUND, PREPARATION METHOD THEREFOR AND APPLICATION THEREOF IN TUMOR DIAGNOSTIC IMAGING” (Ningbo Haibo Biotechnology Co., Ltd, priority 2020, published 2023).
Some entries share one result that the patent states for a list of compounds.

Assays:
[1] = tested on: human renal cancer cell line 786o; experiment: Fluorescence localization imaging in human renal cancer cell line 786o; format: cell-based; conditions: 786o cells, compound 5 μM; for intracellular distribution versus Mito-tracker: Mito-tracker 0.2 nM, 30 min; for uptake by tumor cells: incubated 30 min, near-infrared fluorescence microscopy
[2] = Microscopic morphological test (TEM) of compound mixed with surfactin 1:5 in aqueous solution; format: physicochemical; conditions: compound 20 μM with surfactin 100 μM (1:5) in aqueous solution

SMILES	intracellular distribution versus Mito-tracker [1]	uptake by tumor cells [1]	particle size [2]
CCN1/C(=C/C=C2\CCCC(/C=C/C3=[N+](CC)c4ccccc4C3(C)C)=C2Cl)C(C)(C)c2ccccc21 [Compound 2, reference compound]	colocalized with the Mito-tracker distribution	taken up by tumor cells	–
CC[N+]1=C(/C=C/C2=C(Cl)C(=C/C=C3/N(CCCCCC(=O)O)c4ccccc4C3(C)C)/CCC2)C(C)(C)c2ccccc21 [Compound 3, reference compound]	colocalized with the Mito-tracker distribution	taken up by tumor cells	–
CC1(C)C(/C=C/C2=C(Cl)C(=C/C=C3/N(CCCCCC(=O)O)c4ccccc4C3(C)C)/CCC2)=[N+](CCCCCC(=O)O)c2ccccc21 [Compound 1, reference compound]	colocalized with the Mito-tracker distribution	taken up by tumor cells	–
CC[N+]1=C(/C=C/C2=C(Cl)C(=C/C=C3/N(CCCCCC(=O)Oc4ccc(NC(=O)OC(C)(C)C)cc4)c4ccccc4C3(C)C)/CCC2)C(C)(C)c2ccccc21 [Compound 5]	colocalized with the Mito-tracker distribution	taken up by tumor cells	50-100 nm
